Consider one substance from patent publication US20080207501A1.

By UniProt entry, the sequences of proteins in these tests, tags left out. Where a name states a change or a piece, a line headed by the entry shows the natural chain unless it says otherwise. Residues count along the entry.
UniProt Q16602: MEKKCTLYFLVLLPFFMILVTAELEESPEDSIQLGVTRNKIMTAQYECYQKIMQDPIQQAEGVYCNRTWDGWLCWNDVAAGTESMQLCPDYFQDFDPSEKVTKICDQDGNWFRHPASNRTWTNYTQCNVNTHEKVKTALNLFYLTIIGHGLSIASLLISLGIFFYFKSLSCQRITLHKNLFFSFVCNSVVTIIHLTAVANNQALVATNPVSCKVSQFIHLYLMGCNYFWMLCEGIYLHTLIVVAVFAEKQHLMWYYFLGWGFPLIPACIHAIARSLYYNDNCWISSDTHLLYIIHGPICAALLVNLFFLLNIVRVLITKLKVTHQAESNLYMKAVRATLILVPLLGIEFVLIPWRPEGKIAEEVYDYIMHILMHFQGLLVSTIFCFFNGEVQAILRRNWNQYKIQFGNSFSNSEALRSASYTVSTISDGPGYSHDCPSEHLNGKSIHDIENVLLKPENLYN
UniProt P12969, residues 38-74: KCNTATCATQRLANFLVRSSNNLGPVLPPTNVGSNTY

The experiment deals with CGRP receptor (membranes prepared from SK-N-MC cells) (UniProt Q16602). The experiment in a line: radioligand displacement, 125I-hCGRP, SK-N-MC cell membranes.

These are yes or no findings as the source states them, for the method shown. Some entries that bind do so weakly or less than the wild type.

Turning to “rat amylin (from UniProt P12969 38-74) (peptide)”, the binding entry was “binds”.
